Data reported in patent US8710056B2, “Pyridazine compounds for controlling invertebrate pests” (BASF SE, priority 2009, dated 2014).
Some results were stated once for a whole list of compounds, not compound by compound.

How the values were obtained:
Assay type in all cases: in vivo
[1] = tested on: Green peach aphid (Myzus persicae, mixed life stages); assay: Activity against green peach aphid, foliar spray on infested bell pepper plants; conditions: 300 ppm, determined after 5 days
Procedure: II.2 Activity Against Green Peach Aphid (Myzus persicae, Mixed Life Stages)
(§1) The active compounds were formulated in cyclohexanone as a 10,0000 ppm solution supplied in 1.3 ml ABgene® tubes. These tubes were inserted into an automated electrostatic sprayer equipped with an atomizing nozzle and they served as stock solutions for which lower dilutions were made in 50% acetone:50% water (v/v). A nonionic surfactant (Kinetic®) was included in the solution at a volume of 0.01% (v/v).
Bell pepper plants at the first true-leaf stage were infested prior to treatment by placing heavily infested leaves from the main colony on top of the treatment plants. Aphids were allowed to transfer overnight to accomplish an infestation of 30-50 aphids per plant and the host leaves were removed. The infested plants were then sprayed by an automated electrostatic plant sprayer equipped with an atomizing spray nozzle. The plants were dried in the sprayer fume hood, removed, and then maintained in a growth room under fluorescent lighting in a 24-hr photoperiod at 25° C. and 20-40% relative humidity. Aphid mortality on the treated plants, relative to mortality on untreated control plants, was determined after 5 days.

[2] = tested on: Cotton aphid (Aphis gossypii, mixed life stages); assay: Activity against cotton aphid, foliar spray on infested cotton plants; conditions: 300 ppm, determined after 5 days
Procedure: II.1 Activity Against Cotton Aphid (Aphis gossypii, Mixed Life Stages)
as §1
Cotton plants at the cotyledon stage were infested with aphids prior to treatment by placing a heavily infested leaf from the main aphid colony on top of each cotyledon. Aphids were allowed to transfer overnight to accomplish an infestation of 80-100 aphids per plant and the host leaf was removed. The infested plants were then sprayed by an automated electrostatic plant sprayer equipped with an atomizing spray nozzle. The plants were dried in the sprayer fume hood, removed from the sprayer, and then maintained in a growth room under fluorescent lighting in a 24-hr photoperiod at 25° C. and 20-40% relative humidity. Aphid mortality on the treated plants, relative to mortality on untreated control plants, was determined after 5 days.

[3] = tested on: Green peach aphid (Myzus persicae); assay: Activity against green peach aphid through systemic means, artificial diet in 96-well microtiter plates; conditions: 2500 ppm in aphid diet, 3 days
Excerpt: II.6 Activity Against Green Peach Aphid (Myzus persicae)
For evaluating control of green peach aphid (Myzus persicae) through systemic means the test unit consisted of 96-well-microtiter plates containing liquid artificial diet under an artificial membrane.
The compounds were formulated using a solution containing 75% v/v water and 25% v/v DMSO. Different concentrations of formulated compounds were pipetted into the aphid diet, using a custom built pipetter, at two replications. After application, 5 to 8 adult aphids were placed on the artificial membrane inside the microtiter plate wells. The aphids were then allowed to suck on the treated aphid diet and incubated at about 23+1° C. and about 50+5% relative humidity for 3 days. Aphid mortality and fecundity was then visually assessed.

[4] = tested on: Green peach aphids (Myzus persicae); assay: Hydroponic test against green peach aphids, bare-root green pepper plants; conditions: 100 ppm, bare roots immersed 24 hours, assay 3 days
Procedure: II.7.1 Activity in the Hydroponic Tests Against Green Peach Aphids (Myzus persicae)
(§2) Green pepper plants (Capsicum annuum L., variety ‘California Wonder’) are grown in the greenhouse from seed to the second true leaf stage (BBCH 12) in Scott's MetroMix® 360 (1-2 plants per 2¼″ square pot). Cotyledon leaves are removed and roots are rinsed in tap water until free of soil. The roots are kept moist under a layer of wet paper toweling until all plants have been prepared.
(§3) A 3,400 ppm stock solution is prepared of each test compound using reagent grade acetone as the solvent. Subsequent dilutions of 100 and 10 ppm are prepared from this stock with final dilutions in deionized water in 100 ml amber glass bottles. One bare root plant is placed in each bottle using a foam plug section to centrally secure the stem in the bottleneck. The bare roots are fully-immersed in the test suspensions. Host plants are placed in a plant growth room under continuous GroLux® fluorescent lighting (40W), for 24 hours at 25±2° C. and 20-40% RH.
(§4) After exposure of the bare roots to the test suspensions, pieces of pepper plants infested with green peach aphid (Myzus persicae) are placed on top of the test foliage. Insects are allowed to transfer from the host leaves to accomplish an infestation of 40-50 insects per plant. The assay is allowed to run for 3 days in the same growth chamber as used previously. Assessments include estimates of aphid population density reduction relative to the average density of aphids on the untreated control plants. Phytotoxic responses of the host plants are also recorded at this time.

[5] = tested on: Cotton aphids (Aphis gossypii); assay: Hydroponic test against cotton aphids, bare-root cotton plants; conditions: 100 ppm, bare roots immersed 24 hours, assay 3 days
Procedure: II.8 Activity in the Hydroponic Tests against Cotton Aphids (Aphis gossypii)
as §2, with “Cotton” for “Green pepper”, “(Gossypium hirsutum,” for “(Capsicum annuum L.,”, “‘Sure Grow 747’)” for “‘California Wonder’)”, “Metro-Mix®” for “MetroMix®”
as §3
as §4, with “cotton” for “pepper”, “cotton aphids (Aphis gossypii)” for “green peach aphid (Myzus persicae)”

[6] = tested on: Vetch aphid (Megoura viciae); assay: Activity against vetch aphid, bean leaf disks in microtiterplates; conditions: test solution 2500 mg/L, 2.5 μl sprayed on bean leaf disks, 6 days
Procedure: II.5 Activity Against Vetch Aphid (Megoura viciae)
The active compounds were formulated in 1:3 (vol:vol) DMSO: water with different concentrations of formulated compounds.
Bean leaf disks were placed into microtiterplates filled with 0.8% agar-agar and 2.5 ppm OPUS™. The leaf disks were sprayed with 2.5 μl of the test solution and 5 to 8 adult aphids were placed into the microtiterplates which were then closed and kept at 23±1° C. and 50±5% relative humidity under fluorescent light for 6 days. Mortality was assessed on the basis of vital, reproduced aphids. Aphid mortality and fecundity was then visually assessed.

[7] = tested on: Silverleaf whitefly (bemisia argentifolii, adult); assay: Activity against silverleaf whitefly, sprayed cotton plants; conditions: 300 ppm, whitefly adults, assessed 3 days after treatment
Procedure: II.4 Activity Against Silverleaf Whitefly (bemisia argentifolii, Adult)
as §1
Cotton plants at the cotyledon stage (one plant per pot) were sprayed by an automated electrostatic plant sprayer equipped with an atomizing spray nozzle. The plants were dried in the sprayer fume hood and then removed from the sprayer. Each pot was placed into a plastic cup and 10 to 12 whitefly adults (approximately 3-5 days old) were introduced. The insects were collected using an aspirator and 0.6 cm, nontoxic Tygon® tubing (R-3603) connected to a barrier pipette tip. The tip, containing the collected insects, was then gently inserted into the soil containing the treated plant, allowing insects to crawl out of the tip to reach the foliage for feeding. Cups were covered with a reusable screened lid (150-micron mesh polyester screen PeCap from Tetko, Inc.). Test plants were maintained in a growth room at 25° C. and 20-40% relative humidity for 3 days, avoiding direct exposure to fluorescent light (24 hour photoperiod) to prevent trapping of heat inside the cup. Mortality was assessed 3 days after treatment, compared to untreated control plants.

[8] = tested on: Vanda/Orchid thrips (Dichromothrips corbetti); assay: Activity against Vanda/orchid thrips, petal dip; conditions: 500 ppm, orchid petals dipped, recorded after 72 hours
Procedure: II.7 Activity Against Vanda/Orchid Thrips (Dichromothrips corbetti)
The active compounds were formulated as a 50:50 (vol:vol) acetone:water solution. Surfactant (Alkamuls EL 620) was added at the rate of 0.1% (vol/vol). Vanda orchids petals were cleaned, washed and air dried prior to spraying. Petals were dipped into the test solution for 3 seconds, air dried, placed inside a resealable plastic and inoculated with 20 adults. The treated petals were kept inside the holding room at 28-29° C. and relative humidity of 50-60%. Percent mortality was recorded after 72 hours.

[9] = tested on: Cowpea aphid (Aphis craccivora); assay: Activity against cowpea aphid, spray on potted cowpea plants; conditions: 300 ppm, spray on colonized cowpea plants, population reduction assessed after 24, 72 and 120 hours
Procedure: II.3 Activity Against Cowpea Aphid (Aphis craccivora)
The active compounds were formulated in 50:50 (vol:vol) acetone:water. The test solution was prepared at the day of use.
Potted cowpea plants colonized with 100-150 aphids of various stages were sprayed after the pest population had been recorded. Population reduction was assesed after 24, 72, and 120 hours.

Row | SMILES | mortality in comparison with untreated controls [1] | mortality in comparison with untreated controls [2] | mortality in comparison with untreated controls [3] | mortality in comparison with untreated controls [4] | mortality in comparison with untreated controls [5] | mortality [6] | mortality in comparison with untreated controls [7] | mortality in comparison with untreated controls [8] | mortality in comparison with untreated controls [9]
1 | Cc1nscc1C(=O)N(C)c1ccnnc1 [Compound 25] | at least 75% | at least 75% | 100% |  |  |  |  |  | 
2 | CCc1nscc1C(=O)Nc1ccnnc1 [Compound 22] | at least 75% | at least 75% | 100% | at least 75% | at least 75% | at least 90% |  |  | 
3 | CN(C(=O)c1csnc1C(F)(F)F)c1ccnnc1 [Compound 24] | at least 75% | at least 75% | 100% |  |  |  |  |  | 
4 | O=C(Nc1ccnnc1)c1conc1C(F)(F)F [Compound 14] | at least 75% | at least 75% | 100% | at least 75% | at least 75% | at least 90% | at least 75% | at least 50% | at least 90%
5 | Cc1sncc1C(=O)N(C)c1ccnnc1 [Compound 20] | at least 75% | at least 75% | 100% |  |  |  |  |  | 
6 | CCc1sncc1C(=O)Nc1ccnnc1 [Compound 17] | at least 75% | at least 75% |  |  |  | at least 90% | at least 75% |  | 
7 | CN(C(=O)c1conc1C(F)(F)F)c1ccnnc1 [Compound 15] | at least 75% | at least 75% | 100% |  |  | at least 90% | at least 75% |  | at least 90%
8 | Cc1sncc1C(=O)Nc1ccnnc1 [Compound 19] | at least 75% | at least 75% |  |  |  | at least 90% |  | at least 50% | 
9 | Cc1noc(-c2ccccc2)c1C(=O)Nc1ccnnc1 [Compound 8] | at least 75% | at least 75% |  |  |  |  |  |  | 
10 | Cc1nscc1C(=O)Nc1ccnnc1 [Compound 21] | at least 75% | at least 75% |  | at least 75% | at least 75% | at least 90% |  |  | 
11 | CCc1nocc1C(=O)N(C)c1ccnnc1 [Compound 13] | at least 75% | at least 75% |  |  |  |  |  |  | at least 90%
12 | CCc1nocc1C(=O)Nc1ccnnc1 [Compound 12] | at least 75% | at least 75% |  |  | at least 75% |  | at least 75% |  | at least 90%
13 | Cc1onc(-c2ccc(F)cc2)c1C(=O)Nc1ccnnc1 [Compound 10] | at least 75% | at least 75% |  |  |  |  |  |  | 
14 | Cc1nocc1C(=O)N(C)c1ccnnc1 [Compound 7] | at least 75% | at least 75% |  |  | at least 75% |  |  |  | 
15 | Cc1nocc1C(=O)Nc1ccnnc1 [Compound 1] | at least 75% | at least 75% | 100% | at least 75% | at least 75% | at least 90% | at least 75% |  | at least 90%
16 | CCc1nscc1C(=O)N(C)c1ccnnc1 [Compound 23] | at least 75% |  | 100% |  |  |  |  |  | 
17 | O=C(Nc1ccnnc1)c1csnc1C(F)(F)F [Compound 16] | at least 75% |  |  |  |  | at least 90% | at least 75% |  | 
